In US20080090771A1 (SHIRE LLC, priority 2006, published 2008):

Experiment: peptide synthesis
Conditions: HCl

Substance | step yield (coupling step) [%] | step yield (late stage modification step) [%]
Boc-Gly-Gly-Gly-Gly-Leu-Hydrocodone | 37 | –
Gly-Gly-Gly-Gly-Leu-Hydrocodone | – | 97
